{"source": "the supplement of paper PMC8728848", "binders": {"B1": {"name": "B936 (Bifidobacterium sp) (protein)", "chain": "MKNWKKAIALVASAAALVSVAACGPSNAGGSSDSGKKTVGFVAVGPEGGFRTANEKDIQKAFEDAGFDLTYSPTQNNDQQKQIQAFNKFVNDEVDAIILSSTEDSGWDDSLKKAAEAEIPVFTVDRNVDVKDAEAKKAIVAHIGPSNVWCGEQAAEFVNKNFPDGANGFILEGPAGLSVVKDRGTGWGNKVASNVKVLESQSANWSTDEAKTVTAGLLDKYKSDNPQFIFAQNDEMGLGAAQAVDAAGLKGKVKIITIDGTKNALQALVDGDLSYVIEYNPIFGKETAQAVKDYLDGKTVEKDIEIESKTFDAASAKEALDNNTRAY"}}, "test_in_all_cases": "glycan array binding signal (z-score within array); higher = stronger binding", "conditions_in_all_cases": "glycan notation: IUPAC condensed, linker removed", "key": {"[1]": {"biological_target": "Fuc(a1-2)Gal", "procedure,_shortened": "(§1)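 The Consortium for Functional Glycomics database supplied 3228 glycan arrays, of which those lacking an available protein sequence were dropped. The binding signal, a within-array Z-score, was averaged across arrays of the same protein sequence and across linkers. Negative scores can be read as non-binding.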"}, "[2]": {"biological_target": "Fuc(a1-2)Gal(b1-3)GalNAc", "procedure,_shortened": "as §1"}, "[3]": {"biological_target": "Fuc(a1-2)Gal(b1-3)GalNAc(a1-3)[Fuc(a1-2)]Gal(b1-4)Glc", "procedure,_shortened": "as §1"}, "[4]": {"biological_target": "Fuc(a1-2)Gal(b1-3)GalNAc(a1-3)[Fuc(a1-2)]Gal(b1-4)GlcNAc", "procedure,_shortened": "as §1"}, "[5]": {"biological_target": "Fuc(a1-2)Gal(b1-3)GalNAc(b1-3)Gal", "procedure,_shortened": "as §1"}, "[6]": {"biological_target": "Fuc(a1-2)Gal(b1-3)GalNAc(b1-3)Gal(a1-4)Gal(b1-4)Glc", "procedure,_shortened": "as §1"}, "[7]": {"biological_target": "Fuc(a1-2)Gal(b1-3)GalNAc(b1-4)[Neu5Ac(a2-3)]Gal(b1-4)Glc", "procedure,_shortened": "as §1"}, "[8]": {"biological_target": "Fuc(a1-2)Gal(b1-3)GlcNAc", "procedure,_shortened": "as §1"}, "[9]": {"biological_target": "Fuc(a1-2)Gal(b1-3)GlcNAc(b1-2)Man(a1-3)[Fuc(a1-2)Gal(b1-3)GlcNAc(b1-2)Man(a1-6)]Man(b1-4)GlcNAc(b1-4)GlcNAc", "procedure,_shortened": "as §1"}, "[10]": {"biological_target": "Fuc(a1-2)Gal(b1-3)GlcNAc(b1-2)Man(a1-3)[Fuc(a1-2)Gal(b1-3)GlcNAc(b1-2)Man(a1-6)]Man(b1-4)GlcNAc(b1-4)[Fuc(a1-6)]GlcNAc", "procedure,_shortened": "as §1"}, "[11]": {"biological_target": "Fuc(a1-2)Gal(b1-3)GlcNAc(b1-3)Gal(b1-4)Glc", "procedure,_shortened": "as §1"}, "[12]": {"biological_target": "Fuc(a1-2)Gal(b1-3)GlcNAc(b1-3)GalNAc", "procedure,_shortened": "as §1"}, "[13]": {"biological_target": "Fuc(a1-2)Gal(b1-3)GlcNAc(b1-3)[Fuc(a1-2)Gal(b1-3)GlcNAc(b1-6)]GalNAc", "procedure,_shortened": "as §1"}, "[14]": {"biological_target": "Fuc(a1-2)Gal(b1-3)GlcNAc(b1-3)[Gal(b1-4)GlcNAc(b1-6)]Gal(b1-4)Glc", "procedure,_shortened": "as §1"}, "[15]": {"biological_target": "Fuc(a1-2)Gal(b1-3)GlcNAc(b1-3)[Neu5Ac(a2-6)Gal(b1-4)GlcNAc(b1-6)]Gal(b1-4)Glc", "procedure,_shortened": "as §1"}, "[16]": {"biological_target": "Fuc(a1-2)Gal(b1-3)GlcNAc6S", "procedure,_shortened": "as §1"}, "[17]": {"biological_target": "Fuc(a1-2)Gal(b1-3)[Fuc(a1-4)]GlcNAc", "procedure,_shortened": "as §1"}, "[18]": {"biological_target": "Fuc(a1-2)Gal(b1-3)[Fuc(a1-4)]GlcNAc(b1-2)Man(a1-3)[Fuc(a1-2)Gal(b1-3)[Fuc(a1-4)]GlcNAc(b1-2)Man(a1-3)]Man(b1-4)GlcNAc(b1-4)GlcNAc", "procedure,_shortened": "as §1"}, "[19]": {"biological_target": "Fuc(a1-2)Gal(b1-3)[Fuc(a1-4)]GlcNAc(b1-2)Man(a1-3)[Fuc(a1-2)Gal(b1-3)[Fuc(a1-4)]GlcNAc(b1-2)Man(a1-6)]Man(b1-4)GlcNAc(b1-4)[Fuc(a1-6)]GlcNAc(b1-4)[Fuc(a1-6)]GlcNAc", "procedure,_shortened": "as §1"}, "[20]": {"biological_target": "Fuc(a1-2)Gal(b1-3)[Fuc(a1-4)]GlcNAc(b1-3)[Fuc(a1-3)[Gal(b1-4)]GlcNAc(b1-6)]Gal(b1-4)Glc", "procedure,_shortened": "as §1"}, "[21]": {"biological_target": "Fuc(a1-2)Gal(b1-3)[Fuc(a1-4)]GlcNAc(b1-3)[Gal(b1-4)GlcNAc(b1-6)]Gal(b1-4)Glc", "procedure,_shortened": "as §1"}, "[22]": {"biological_target": "Fuc(a1-2)Gal(b1-4)Glc", "procedure,_shortened": "as §1"}, "[23]": {"biological_target": "Fuc(a1-2)Gal(b1-4)Glc6S", "procedure,_shortened": "as §1"}, "[24]": {"biological_target": "Fuc(a1-2)Gal(b1-4)GlcNAc", "procedure,_shortened": "as §1"}, "[25]": {"biological_target": "Fuc(a1-2)Gal(b1-4)GlcNAc(b1-2)Man", "procedure,_shortened": "as §1"}, "[26]": {"biological_target": "Fuc(a1-2)Gal(b1-4)GlcNAc(b1-2)Man(a1-3)[Fuc(a1-2)Gal(b1-4)GlcNAc(b1-2)Man(a1-6)]Man(b1-4)GlcNAc(b1-4)GlcNAc", "procedure,_shortened": "as §1"}, "[27]": {"biological_target": "Fuc(a1-2)Gal(b1-4)GlcNAc(b1-2)Man(a1-3)[Fuc(a1-2)Gal(b1-4)GlcNAc(b1-2)Man(a1-6)]Man(b1-4)GlcNAc(b1-4)[Fuc(a1-6)]GlcNAc", "procedure,_shortened": "as §1"}, "[28]": {"biological_target": "Fuc(a1-2)Gal(b1-4)GlcNAc(b1-2)[Fuc(a1-2)Gal(b1-4)GlcNAc(b1-4)]Man(a1-3)[Fuc(a1-2)Gal(b1-4)GlcNAc(b1-2)Man(a1-6)]Man(b1-4)GlcNAc(b1-4)GlcNAc", "procedure,_shortened": "as §1"}, "[29]": {"biological_target": "Fuc(a1-2)Gal(b1-4)GlcNAc(b1-3)Gal(b1-4)GlcNAc", "procedure,_shortened": "as §1"}, "[30]": {"biological_target": "Fuc(a1-2)Gal(b1-4)GlcNAc(b1-3)Gal(b1-4)GlcNAc(b1-2)Man(a1-3)[Fuc(a1-2)Gal(b1-4)GlcNAc(b1-3)Gal(b1-4)GlcNAc(b1-2)Man(a1-6)]Man(b1-4)GlcNAc(b1-4)GlcNAc", "procedure,_shortened": "as §1"}}, "note": "This is one part of the list.", "data": [{"binder": "B1", "values": [{"measurement": "glycan array binding signal (z-score)", "setting": "[1]", "result": -0.846}, {"measurement": "glycan array binding signal (z-score)", "setting": "[2]", "result": 0.49}, {"measurement": "glycan array binding signal (z-score)", "setting": "[3]", "result": -0.652}, {"measurement": "glycan array binding signal (z-score)", "setting": "[4]", "result": 0.062}, {"measurement": "glycan array binding signal (z-score)", "setting": "[5]", "result": -0.444}, {"measurement": "glycan array binding signal (z-score)", "setting": "[6]", "result": -0.438}, {"measurement": "glycan array binding signal (z-score)", "setting": "[7]", "result": -0.493}, {"measurement": "glycan array binding signal (z-score)", "setting": "[8]", "result": -0.319}, {"measurement": "glycan array binding signal (z-score)", "setting": "[9]", "result": -0.888}, {"measurement": "glycan array binding signal (z-score)", "setting": "[10]", "result": -0.295}, {"measurement": "glycan array binding signal (z-score)", "setting": "[11]", "result": -0.482}, {"measurement": "glycan array binding signal (z-score)", "setting": "[12]", "result": 0.88}, {"measurement": "glycan array binding signal (z-score)", "setting": "[13]", "result": 0.197}, {"measurement": "glycan array binding signal (z-score)", "setting": "[14]", "result": -0.582}, {"measurement": "glycan array binding signal (z-score)", "setting": "[15]", "result": 0.956}, {"measurement": "glycan array binding signal (z-score)", "setting": "[16]", "result": -0.871}, {"measurement": "glycan array binding signal (z-score)", "setting": "[17]", "result": -0.349}, {"measurement": "glycan array binding signal (z-score)", "setting": "[18]", "result": 1.16}, {"measurement": "glycan array binding signal (z-score)", "setting": "[19]", "result": 0.583}, {"measurement": "glycan array binding signal (z-score)", "setting": "[20]", "result": -0.075}, {"measurement": "glycan array binding signal (z-score)", "setting": "[21]", "result": -0.594}, {"measurement": "glycan array binding signal (z-score)", "setting": "[22]", "result": 0.21}, {"measurement": "glycan array binding signal (z-score)", "setting": "[23]", "result": 0.842}, {"measurement": "glycan array binding signal (z-score)", "setting": "[24]", "result": -0.459}, {"measurement": "glycan array binding signal (z-score)", "setting": "[25]", "result": 0.316}, {"measurement": "glycan array binding signal (z-score)", "setting": "[26]", "result": 0.486}, {"measurement": "glycan array binding signal (z-score)", "setting": "[27]", "result": 0.957}, {"measurement": "glycan array binding signal (z-score)", "setting": "[28]", "result": 1.25}, {"measurement": "glycan array binding signal (z-score)", "setting": "[29]", "result": -0.114}, {"measurement": "glycan array binding signal (z-score)", "setting": "[30]", "result": 0.417}]}]}
